Data as given in article PMC7226807.
No constants are given. Whether binding was seen depends on the method and setting. Binding seen in cells or lysates may run through a third protein. These calls come from enrichment with a bait or labelling near it, and not all partners need be listed.

Chains of the proteins cited; added tags and fusions are not shown.
UniProt Q13283: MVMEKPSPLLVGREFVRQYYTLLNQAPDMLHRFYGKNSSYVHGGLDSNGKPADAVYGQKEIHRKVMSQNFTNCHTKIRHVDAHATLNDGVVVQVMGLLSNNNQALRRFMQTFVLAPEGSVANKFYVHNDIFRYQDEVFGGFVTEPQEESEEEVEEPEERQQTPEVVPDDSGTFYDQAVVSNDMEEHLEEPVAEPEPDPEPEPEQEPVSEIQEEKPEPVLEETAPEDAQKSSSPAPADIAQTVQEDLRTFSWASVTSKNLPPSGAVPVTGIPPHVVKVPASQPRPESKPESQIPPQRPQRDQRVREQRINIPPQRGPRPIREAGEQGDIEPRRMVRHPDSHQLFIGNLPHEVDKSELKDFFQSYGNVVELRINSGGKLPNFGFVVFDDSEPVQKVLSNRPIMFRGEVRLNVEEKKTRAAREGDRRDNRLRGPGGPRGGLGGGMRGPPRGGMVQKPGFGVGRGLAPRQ

Molecular target: T1, HspBP1 (hsp70-binding protein 1) (human (endogenous in HeLa)) (UniProt Q9NZL4)
T1 sequence: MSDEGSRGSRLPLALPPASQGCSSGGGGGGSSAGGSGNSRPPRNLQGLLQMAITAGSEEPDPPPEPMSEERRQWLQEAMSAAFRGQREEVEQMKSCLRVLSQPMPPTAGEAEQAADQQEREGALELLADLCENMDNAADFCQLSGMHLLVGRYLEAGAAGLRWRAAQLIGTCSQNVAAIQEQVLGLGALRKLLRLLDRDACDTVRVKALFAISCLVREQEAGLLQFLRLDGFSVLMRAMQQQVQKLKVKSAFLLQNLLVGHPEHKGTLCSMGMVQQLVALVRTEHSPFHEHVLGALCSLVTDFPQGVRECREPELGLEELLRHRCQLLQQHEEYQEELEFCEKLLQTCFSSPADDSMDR
Assay: affinity purification with mass spectrometry; HeLa cells, control or DEM-treated; proteins reversibly cross-linked with DSP; complexes immunoprecipitated with antibodies against HspBP1; gel bands digested with trypsin, MSMS

G3BP1 (from UniProt Q13283 1-466)
binding: binds
